Experimental data taken from PubChem BioAssay AID588590 (National Center for Advancing Translational Sciences (NCATS), 2011).
Hit rate of the full screen: of about 390,000 compounds, about 4,000 (1%) were called active. This list was built around the results that the source calls inconclusive (neither active nor inactive); the mix of calls is not that of the screen. The call rests on the fitted dose curve; in most records, active means well fitted inhibition curve with a large enough effect; inconclusive means small, poorly fitted or top-dose-only effect, or another doubt; inactive means no such curve, though single readings can be large or run the other way. Where the call is inconclusive, the potency comes from a doubtful curve fit.

The chains behind the UniProt entries cited, without tags or fusion partners. Where a name states a change or a piece, a line headed by the entry shows the natural chain unless it says otherwise.
UniProt Q9UNA4: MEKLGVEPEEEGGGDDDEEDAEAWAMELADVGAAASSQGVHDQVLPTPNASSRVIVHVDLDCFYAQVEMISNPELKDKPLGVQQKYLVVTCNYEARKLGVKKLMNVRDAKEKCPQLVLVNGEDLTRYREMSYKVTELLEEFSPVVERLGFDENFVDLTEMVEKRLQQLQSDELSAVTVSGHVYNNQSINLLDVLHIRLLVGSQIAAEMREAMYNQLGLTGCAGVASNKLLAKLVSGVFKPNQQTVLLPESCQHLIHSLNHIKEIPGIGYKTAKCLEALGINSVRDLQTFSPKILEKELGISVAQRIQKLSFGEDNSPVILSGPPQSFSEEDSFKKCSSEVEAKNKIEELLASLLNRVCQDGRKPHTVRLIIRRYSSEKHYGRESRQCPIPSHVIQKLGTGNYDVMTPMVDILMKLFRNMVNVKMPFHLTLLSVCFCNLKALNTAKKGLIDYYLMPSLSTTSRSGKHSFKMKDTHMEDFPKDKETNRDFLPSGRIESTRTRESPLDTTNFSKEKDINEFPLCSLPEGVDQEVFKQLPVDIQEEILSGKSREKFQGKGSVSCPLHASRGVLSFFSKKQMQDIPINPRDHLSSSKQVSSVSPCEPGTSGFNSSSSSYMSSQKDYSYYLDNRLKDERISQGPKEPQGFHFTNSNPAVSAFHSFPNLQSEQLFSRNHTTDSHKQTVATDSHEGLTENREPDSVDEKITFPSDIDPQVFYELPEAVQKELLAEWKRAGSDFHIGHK

Molecular target: DNA polymerase iota (Homo sapiens) (UniProt Q9UNA4)
Assay: qHTS for Inhibitors of Polymerase Iota
Conditions: Pol iota fluorescent replication assay, 10 min; series mostly up to 115 µM
In short: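 Pol iota at 10 nM preincubated 15 min with compounds at room temperature; reaction started with fluorescent substrate, 50 nM final. Fluorescence read kinetically at 0 and 10 min; buffer-only wells as negative control.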
Potency means the concentration at half of the fitted maximal effect.

Potency, inactive:
CSc1cccc(NC(=O)C2CCN(S(=O)(=O)c3ccc4[nH]c(=O)ccc4c3)CC2)c1
O=C(OCc1c(F)cccc1Cl)c1cnc2ccccc2n1
NS(=O)(=O)c1cccc2c1c([N+](=O)[O-])cc1nc(O)c(O)nc12
Cc1cc(N2CCCCC2)nc2ccccc12
COc1ccc(CCNC(=O)CN(C)S(=O)(=O)c2cccs2)cc1
COc1cccc(-n2c(C)nc3c(cnn3-c3ccc(C)cc3)c2=O)c1
Cc1cc(Cl)ccc1OC(C)C(=O)Nc1ccc([N+](=O)[O-])cn1 (stereo unspecified)
COc1cc(Cl)c(C)cc1NC(=O)c1cnn(-c2ccc(C)cc2)c1-n1cccc1
CN(CC(=O)Nc1ccc(Cl)c(C(F)(F)F)c1)C(=O)CNC(=O)C1CCCCC1
CCc1ccccc1N1C(=O)N(Cc2cccc(Cl)c2)c2ccccc2S1(=O)=O
CCc1ccc(NCc2cc3ccc(OC)cc3n(CC(=O)Nc3cccc(Cl)c3C)c2=O)cc1
Nc1c(Cl)cc(/C=C2\C=Cc3ccccc32)cc1Cl
O=c1c2cc3c(cc2n(Cc2cccc(F)c2)c(=O)n1Cc1nc(-c2ccccc2)no1)OCO3
CC(=O)c1cccc(NC(=O)c2sc3nc4c(cc3c2N)CCCC4)c1
Cc1ccc(OCC(=O)Nc2cccc(C(=O)OCc3cc(=O)n4cc(C)sc4n3)c2)cc1
CCC(C)(C)NC(=O)C(c1ccncc1)N(C(=O)Cn1nnc2ccccc21)c1cc2c(cc1C(C)=O)OCO2 (stereo unspecified)

4 entries picked at random from those above:
Potency, inactive:
CCc1ccc(NCc2cc3ccc(OC)cc3n(CC(=O)Nc3cccc(Cl)c3C)c2=O)cc1
NS(=O)(=O)c1cccc2c1c([N+](=O)[O-])cc1nc(O)c(O)nc12
CC(=O)c1cccc(NC(=O)c2sc3nc4c(cc3c2N)CCCC4)c1
COc1cc(Cl)c(C)cc1NC(=O)c1cnn(-c2ccc(C)cc2)c1-n1cccc1

Following part.

Potency, active:
O=C1C(Cl)=C(N2CCN(c3ccccc3[N+](=O)[O-])CC2)C(=O)c2ccccc21 7.94 µM
CSC1=N/C(=C\C=C\c2cccs2)C(=O)S1 15.8 µM
CCc1cc(=O)oc2cc(C)c(CN3CCCCC3)c(O)c12 7.94 µM
O=C(c1ccco1)N(CCC(c1ccccc1)c1ccco1)Cc1ccco1 (stereo unspecified) 22.4 µM
COc1ccc2c([N+](=O)[O-])c(Cl)[nH]c2c1 11.2 µM

Potency, inconclusive:
CC(C)c1ccc(S(=O)(=O)Nc2ccc(O)c(Sc3nc4ccccc4s3)c2)cc1 50.1 µM [inhibitor, partial curve]
O=C(Nc1ccncc1)c1ccccc1Cl 0.631 µM [inhibitor, full curve, poor fit]
CCCC(O)(c1ccc(OC)cc1)C(CN1CCOCC1)c1ccc(Cl)cc1 (stereo unspecified) 39.8 µM [inhibitor, partial curve]
Cc1cc(C=C2C(=O)c3ccccc3C2=O)c(C)n1-c1cccc(C(=O)O)c1 39.8 µM [inhibitor, single point]
COc1ccc(/C=C/C(=O)NCc2cn(C)nc2C)cc1COc1ccc(Cl)cc1Br 7.08 µM [inhibitor, full curve, poor fit]
CCc1ccc2nc(N(Cc3cccnc3)C(=O)c3cccs3)sc2c1 22.4 µM [inhibitor, partial curve, poor fit]
O=C1CSC(c2ccc(Cl)cc2)N1 (stereo unspecified) 112 µM [inhibitor, single point]
CC(=O)N1CCN(/[N+]([O-])=N/Oc2ccc([N+](=O)[O-])cc2[N+](=O)[O-])CC1 14.1 µM [inhibitor, partial curve, poor fit]
COC(=O)c1cc(=O)n(Cc2cccs2)c(=Nc2ccc(F)cc2)s1 50.1 µM [inhibitor, single point]
CCCC(=O)Nc1ccc(NC(=O)c2sc3ccccc3c2Cl)cc1 89.1 µM [inhibitor, single point]
COc1ccc(NC(=O)NC[C@@H]2CC[C@@H](Cc3ccc(-c4ccccc4)cc3)O2)cc1 3.98 µM [inhibitor, partial curve, poor fit]
O=C(CCl)c1ccc2[nH]c(=O)oc2c1 14.1 µM [inhibitor, full curve, poor fit]
CCc1ccc(S(=O)(=O)NCCc2csc(-c3ccccc3)n2)s1 89.1 µM [inhibitor, partial curve, poor fit]
O=C1CN(CC(=O)Nc2cccc(Cl)c2Cl)c2ccccc2N1 44.7 µM [inhibitor, partial curve, poor fit]
CC(C)c1ccc(NC(=O)C(c2ccc3c(c2)OCO3)N2CCN(C(=O)c3ccco3)CC2)cc1 (stereo unspecified) 12.6 µM [inhibitor, full curve, poor fit]
Cc1ccc(C(=O)NC2CCCCNC2=O)cc1 (stereo unspecified) 11.2 µM [inhibitor, partial curve, poor fit]
O=C(N/N=C/C(Br)=C/c1ccccc1)c1cc(-c2ccco2)[nH]n1 17.8 µM [inhibitor, partial curve, poor fit]
COc1ccc(Cc2nnc(SCC(=O)NCc3ccco3)o2)cc1 39.8 µM [inhibitor, single point]
CCc1ccc(CNCCSc2nnnn2C)cc1 79.4 µM [inhibitor, single point]
CCC/C=C1/CCCOC(C(=O)NCCOC)(C(F)(F)F)C1 (stereo unspecified) 89.1 µM [inhibitor, single point]
CN(C)CCNC(=O)c1ccc2nc(CCc3ccccc3)oc2c1 89.1 µM [inhibitor, single point]
CCc1ccc(NC(=O)CSC2=Nc3ccccc3C3=NC(CC(=O)NCc4ccc5c(c4)OCO5)C(=O)N23)cc1 (stereo unspecified) 89.1 µM [inhibitor, single point]
Cc1cc([N+](C)(C)C)cc(C)c1/C=C/c1ccnc2ccccc12 15.8 µM [inhibitor, full curve, poor fit]
O=C(/C=C/c1cccc(Cl)c1)c1nc2ccccc2[nH]1 15.8 µM [inhibitor, partial curve, poor fit]
O=C(CSCc1cccc(Cl)c1)N/N=C/c1ccc(OCC(=O)N2CCCCC2)cc1 39.8 µM [inhibitor, partial curve, poor fit]
Cc1ccc(NC(=O)CSCc2nc3c(nnn3Cc3ccc(F)cc3)c(=O)[nH]2)c(C)c1 39.8 µM [inhibitor, single point]
CN1CCc2c(sc3c2C(=O)NC(c2cccs2)N3)C1 (stereo unspecified) 17.8 µM [inhibitor, full curve, poor fit]
CCOC(=O)C1=CN(Cc2ccco2)S(=O)(=O)N(CC)C1c1ccc(F)c(Cl)c1 (stereo unspecified) 39.8 µM [inhibitor, single point]
CCCC(=O)Nc1nn(CCC)c2nc3ccccc3cc12 1.26 µM [inhibitor, full curve, poor fit]
COC(=O)c1ccc(Nc2ncnc3c2cnn3-c2cccc(C)c2)cc1 39.8 µM [inhibitor, partial curve, poor fit]
O=C(NCCc1ccccc1)c1cc2ncc(Br)cn2n1 25.1 µM [inhibitor, full curve, poor fit]
COc1ccc(C(=O)NC(=S)Nc2nc(C)cc(C)n2)cc1Br 22.4 µM [inhibitor, partial curve, poor fit]
O=C(Nc1sc2c(c1C(=O)O)CCC2)c1ccccc1 31.6 µM [inhibitor, partial curve, poor fit]
C=CCN=C1NN=C(c2ccc3c(c2)OCCO3)CS1 31.6 µM [inhibitor, partial curve, poor fit]
CC1=C(C#N)C(=O)OC(C)(C)C1 12.6 µM [inhibitor, full curve, poor fit]
O=C1COc2ccc(S(=O)(=O)NCCc3ccccc3)cc2N1 89.1 µM [inhibitor, partial curve, poor fit]
Cc1cccc(NC(=O)C2CC(=O)OC23CCCC3)c1 (stereo unspecified) 20 µM [inhibitor, partial curve, poor fit]
Cc1cccc2c1-c1sc(C(=O)Nc3cccnc3)cc1CO2 56.2 µM [inhibitor, partial curve, poor fit]
O=C1NC2CCCCC2C(=O)N1OS(=O)(=O)c1ccccc1 (stereo unspecified) 39.8 µM [inhibitor, partial curve, poor fit]
O=C(CCCn1c(=S)[nH]c2ccsc2c1=O)NCCc1ccccc1 100 µM [inhibitor, partial curve, poor fit]
COc1cc(OC)c(NC(=O)c2nc(-c3ccncc3)no2)cc1Cl 89.1 µM [inhibitor, partial curve, poor fit]
C[C@H]1CCC(=O)N([C@H](CSc2ccccc2)Cc2ccccc2)CC1 35.5 µM [inhibitor, single point]
CCC1(C)N=C(c2ccc3c(c2)OCO3)CC(c2ccccc2O)N1 (stereo unspecified) 12.6 µM [inhibitor, partial curve, poor fit]
O=C(C1COc2ccccc2O1)N(Cc1cccnc1)c1nc2c(F)cc(F)cc2s1 (stereo unspecified) 5.01 µM [inhibitor, partial curve, poor fit]
C#CCOCCOCCOCCNc1nc(N2CCN(C(=O)[C@H](CCCN=C(N)N)n3cc(C(N)[C@@H](C)CC)nn3)CC2)nc(N2CCN(C(=O)[C@H](CC(N)=O)n3cc([C@@H](N)C(C)C)nn3)CC2)n1 (stereo partly specified) 15.8 µM [inhibitor, partial curve, poor fit]

Nothing new here: two of the compounds above.
Potency, inconclusive:
CCc1ccc(CNCCSc2nnnn2C)cc1 79.4 µM [inhibitor, single point]
CCC/C=C1/CCCOC(C(=O)NCCOC)(C(F)(F)F)C1 (stereo unspecified) 89.1 µM [inhibitor, single point]
